Percent effect of library compounds

Mtb glucose medium: 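Whole-cell growth test on Mycobacterium tuberculosis, read after 3 days in glucose-containing 7H9 medium; the read-out is not stated. Concentration: 50 µM. Direction is inferred from retests: higher values go with more growth inhibition. Of about 69,000 compounds tested this way, about 760 (1.1%) reached 50% or more in at least one test.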
Mtb cholesterol medium: 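Phenotypic screen: M. tuberculosis growth, cholesterol and DPPC medium, 4 days; the read-out is not stated. Compounds at 50 µM. The record gives no direction; compounds that gave an IC50 in retests scored well above the rest, so higher reads as more growth inhibition. About 69,000 compounds were tested under these conditions; 0.54% (about 370) showed 50% or more at least once.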

Values are the deposited “Percent Effect”, in %.
How 0% and 100% were set is not recorded. Most values in the screen are low, and negative values occur.
This is an unselected part of the compounds tested.
Two or more numbers in one place are separate tests of the same structure; such repeats can differ widely.

compound,Mtb glucose medium,Mtb cholesterol medium
CCO[C@H]1C[C@@H](O)C12CCN(C1CCN(c3ccccc3C)CC1)CC2,0.6682 & 11.73,12.64
O=C(O)C(F)(F)F.O=C(O)C(F)(F)F.[H][C@@]12CN(Cc3cccc(F)c3)C[C@]1([H])CN(Cc1ccccn1)C2,-0.1757,-3.621
Cc1nccc(C2(C)CCCNC2)n1.Cl.Cl (centres unmarked),-15.58,-15.91 & -32.93
Cc1nccn1CCCC(=O)N1CCCN(c2cccnn2)CC1,-7.211,-1.051
CCc1ncc2c(n1)CN(CC(=O)Nc1cc(C)on1)CC2,-16.19,-4.865
Cn1ccc(C(=O)NC2CCC23CCN(CC2CCOCC2)CC3)c1.O=C(O)C(F)(F)F (centres unmarked),27.3,12.42
COc1cccc(C(=O)NS(=O)(=O)c2cc(Cl)sc2Cl)c1OC(F)F,-13.13,-14.86 & 3.362
CCS(=O)(=O)CC(C)NC(=O)N(C)Cc1cc(Cl)cn1C (centres unmarked),-4.315,-3.444
Cc1c(C2SCC(=O)Nc3c2cnn3C(C)(C)C)cnn1C (centres unmarked),21.24,-0.156
Cc1ccsc1C(CNC(=O)c1cc(=O)[nH]c(=O)[nH]1)N(C)C (centres unmarked),-28.66,-42.5
CN(Cc1ccc(Cl)s1)C(=O)Nc1ccc(N(C)C)nc1,-28.47,-26.81
[H][C@@]12C[C@@H](Oc3ccccc3)C[C@]1([H])CN(C(=O)c1cnn(CC)c1)C2,1.922,23.92 & 16.22
Cc1cccc(C(=O)NC(C)CN2CCCC2=O)n1 (centres unmarked),-42.36,-2.344
CCc1cc(N(C)Cc2ncc[nH]2)nc(N2CCOCC2)n1,-6.665,-12.03
Cc1cnn(CC2CN(CC(=O)NCc3ccc(C)s3)CCO2)c1 (centres unmarked),-0.8146,-10.66
FC(F)CN1CCC(NCc2ccc(-n3cccn3)nc2)CC1,6.938,-27.93
CC1CCN(CCNC(=O)C2CCN(C(=O)C3CC3)CC2)CC1,2.734 & 0.7252,-9.415
O=C(c1ccco1)N1Cc2cnn(CC3CC3)c2C(COCC2CC2)C1 (centres unmarked),-48.1,-17.76
COCCn1ccnc1-c1cc(CN2CCCCC2)cs1,-20.08,-35.15
COc1ccc(-c2ccnc(C3CCNCC3)c2)cc1.Cl,20.38,0.7116
COCC[C@]1(O)CCN(Cc2nc(C)c(C)s2)C[C@H]1C,-24.13 & 1.529,14.72
Cc1nnc(NCC(c2ccco2)N2CCCCC2)c(C#N)c1C (centres unmarked),5.789,0.2628
Cc1noc(C)c1CN1CCC2(CC1)NC(=O)CC2c1cnn(C)c1 (centres unmarked),-15.14,-4.671
Cc1noc(C)c1-c1nc(NCCN(C)C)ncc1-c1cnccn1,-5.635,9.87
CCN(CC)C(=O)c1ccn(COc2ccc(F)cc2F)n1,-2.636,-17.35
CNc1ccc(CC2CCCN(C(=O)c3scnc3C)C2)nn1 (centres unmarked),0.7761,8.959
Cc1cc(C)n(CC2CCCN2CC(=O)N(C)CCC#N)n1 (centres unmarked),-5.681,-17.7
Cc1ccc(CNC(=O)COc2ccc3c(c2)OCC3O)cc1 (centres unmarked),15.36,20.72
[H][C@@]12C[C@H](C(=O)N(C)C)CN(Cc3ccccn3)[C@]1([H])CCO2,10.55,-4.341
Cc1ccoc1-c1nnc(CN2CCn3c(C)nnc3C2)o1,-27.83,-0.7787
O=C(O)C(F)(F)F.O=C(O)C(F)(F)F.[H][C@@]12COC[C@]1(COc1cccnc1)CN(Cc1ccc(OC)cc1)C2,41.16,16.16 & 12.92
Cc1cnccc1N1CCCN(C(=O)CCc2n[nH]c(C)c2C)CC1,-8.448,2.683 & -9.534
O=S(=O)(Cc1cccc(Cl)c1)CC(O)Cn1cccn1 (centres unmarked),16.66,-2.251
O=c1c(-c2ccnc(N3CCC[C@H]3CO)n2)cnc2sccn12,29.9,-9.871
CCn1ccnc1CN1CCCN(C(=O)c2cc(Cl)c[nH]2)CC1,-13.68,0.2625
CNC(=O)NC(=O)Cn1cc(-c2ccccc2)cn1,-8.728,-3.773
Cc1noc(C)c1CC(=O)NCCN1CCN(S(C)(=O)=O)CC1,-11.83,-13.88
CC(C)=CCNC1CCCN(c2ccc(C)nn2)C1 (centres unmarked),19.69,8.185
COc1ccccc1CCNC(=O)N1CCCC(c2nncn2C)C1 (centres unmarked),10.35,3.229
O=C(c1cc(-n2cccc2)ccc1Cl)N1CCC2(CC1)OCCO2,17.37 & 4.779,5.848
CC(NCCCN1CCCC1=O)c1ccc(F)cc1N(C)C (centres unmarked),-3.953 & 12.34,19.97
CC(NC(=O)NCCCn1cncn1)c1ccc(C(F)(F)F)cc1 (centres unmarked),-0.6913,1.976
OCC(CO)Nc1nc(C(F)F)nc2ccccc12,-9.934 & -2.908,-0.4314
COc1ccc(S(=O)(=O)N[C@H]2CN(C(C)=O)C[C@@H]2C2CC2)cc1C,17.2,9.291
CN(C)C(=O)Cc1ccccc1NCc1noc(-c2ccccc2)n1,15.13,11.03
COc1ccc(Br)cc1CCC(=O)N1CCC(O)CC1,-5.756,-30.42
c1cncc(N2CCCn3nnc(CN4CCOCC4)c3C2)c1,-3.965,-6.349
COc1cc(CN2CC[C@H](NC(C)=O)[C@@H](O)CC2)ccc1F,-5.037,1.862
Cc1nn(CCNC(C)Cn2cncn2)c(C)c1Cl (centres unmarked),-33.67,12.14
CCOC(=O)C1(O)CCN(C(=O)Nc2cccc(CC)c2)CC1,0.3693,-0.9365
Cc1ccccc1CNC(=O)Cc1c(C)nc2cc(=O)[nH]n2c1C,-4.532,11.2
Cc1nc[nH]c1C(=O)N1CCC2(CC1)CN(CCN(C)C)C(=O)O2,-14.3,-2.255 & -20.06
Cc1csc(CNCc2c(C)nn(C)c2N2CCOCC2)n1,-5.69,-13.16
Cc1ncsc1C(=O)N(C)Cc1cccc(Cl)c1,9.873,-20.46
COC(=O)c1cccc(CNC(=O)c2cc(C(C)C)n(C)n2)c1,31.15,-20.95
O=C(NCC1CC1)C1CN(C(=O)NC2CCCC2)Cc2cncn2C1 (centres unmarked),-34.17,-40.48
COc1ccc(C(=O)N2CCOCC2c2ccc(C)o2)cc1 (centres unmarked),15.09,-4.108 & 11.57
COc1ccc(F)cc1S(=O)(=O)N1CCC(Oc2ccc(Cl)cn2)CC1,0.935 & -23.12,3.085
CN1CCCCC1c1ncc2c(n1)CCN(Cc1ccc(F)cc1)C2 (centres unmarked),41.44,10.46
Cn1cc(C(=O)N2CCCC(CN3CCCC3=O)C2)cn1 (centres unmarked),3.379,-16.62
O=C(O)C(F)(F)F.O=C(O)C(F)(F)F.O=C(O)C(F)(F)F.[H][C@@]12COC[C@]1(COCc1ccncc1)CN(Cc1ccncc1)C2,-12.8,-35.67
Cc1ccc(S(=O)(=O)Nc2ccc(-n3ccnc3C)nc2)cc1N(C)C,-37.67,-14.39
CC(=O)NCCNC(=O)Nc1ccc(Br)cc1C(C)C,-34.21,-25.86 & -14.86
CC(C)(C)c1cn(C2CCN(C3CCSC3)CC2)nn1 (centres unmarked),-2.655,0.08455
CC(=O)N1CCC2(CCN(C(=O)c3ccc(F)c(C(F)(F)F)c3)CC2)C1,-13.68,0.08451
CN(C)C(C(=O)N1CCC(C#N)CC1)c1ccccc1F (centres unmarked),19.11,-6.152
CCN1CC2(CCC1=O)CCN(CCOc1ccc(F)cc1)CC2,-11.09 & -10.97,-6.279
N#CC(NC(=O)CCCOc1cccnc1)c1ccc(F)cc1F (centres unmarked),3.958,-7.3 & -5.47
CCc1ccc(S(=O)(=O)Nc2ccn(CC(=O)OC)n2)cc1,15.6,-2.253
Cc1cnc(C(=O)N2CCOCC2c2ccccc2)cn1 (centres unmarked),2.786,-8.088
Cc1cc(NCc2ccc(N3CCNC(=O)C3)cc2)nc(C)n1,-27.35,2.054
Cn1c(CN2CCC(N3CCNC3=O)CC2)cc(=O)n(C)c1=O,25.48,28.47
Nc1nc(CCNc2ncnc3c2CCN(C(=O)C2CC2)C3)cs1,11.09,0.3204
Cc1cc(C(=O)N2CC[C@](C)(O)[C@H](C)C2)c(C)n1C,-10.12,-16.1
Cc1ccoc1C(=O)NC(CC(C)C)C(=O)N1CCC(CO)CC1 (centres unmarked),-42.77,-65.24
CN(C)S(=O)(=O)c1ccc(CN2CCCC2c2cccs2)o1 (centres unmarked),9.401,-9.687

Once more, the final 10:

CCN1CC2(CCC1=O)CCN(CCOc1ccc(F)cc1)CC2 gave Mtb glucose medium: -11.09% & -10.97%; Mtb cholesterol medium: -6.279%.
N#CC(NC(=O)CCCOc1cccnc1)c1ccc(F)cc1F (centres unmarked) gave Mtb glucose medium: 3.958%; Mtb cholesterol medium: -7.3% & -5.47%.
CCc1ccc(S(=O)(=O)Nc2ccn(CC(=O)OC)n2)cc1 gave Mtb glucose medium: 15.6%; Mtb cholesterol medium: -2.253%.
Cc1cnc(C(=O)N2CCOCC2c2ccccc2)cn1 (centres unmarked) gave Mtb glucose medium: 2.786%; Mtb cholesterol medium: -8.088%.
Cc1cc(NCc2ccc(N3CCNC(=O)C3)cc2)nc(C)n1 gave Mtb glucose medium: -27.35%; Mtb cholesterol medium: 2.054%.
Cn1c(CN2CCC(N3CCNC3=O)CC2)cc(=O)n(C)c1=O gave Mtb glucose medium: 25.48%; Mtb cholesterol medium: 28.47%.
Nc1nc(CCNc2ncnc3c2CCN(C(=O)C2CC2)C3)cs1 gave Mtb glucose medium: 11.09%; Mtb cholesterol medium: 0.3204%.
Cc1cc(C(=O)N2CC[C@](C)(O)[C@H](C)C2)c(C)n1C gave Mtb glucose medium: -10.12%; Mtb cholesterol medium: -16.1%.
Cc1ccoc1C(=O)NC(CC(C)C)C(=O)N1CCC(CO)CC1 (centres unmarked) gave Mtb glucose medium: -42.77%; Mtb cholesterol medium: -65.24%.
CN(C)S(=O)(=O)c1ccc(CN2CCCC2c2cccs2)o1 (centres unmarked) gave Mtb glucose medium: 9.401%; Mtb cholesterol medium: -9.687%.

From ChEMBL document CHEMBL3988442, “University of Dundee, Small-Polar-MMV Screening Library” (2021).